Assay results published in PubChem BioAssay AID485314 (National Center for Advancing Translational Sciences (NCATS), 2010).
The whole screen tested about 340,000 compounds, of which about 4,500 (1.3%) were called active. This list was built around the results that the source calls inconclusive (neither active nor inactive); the mix of calls is not that of the screen. The call rests on the fitted dose curve; in most records, active means well fitted inhibition curve with a large enough effect; inconclusive means small, poorly fitted or top-dose-only effect, or another doubt; inactive means no such curve, though single readings can be large or run the other way. Potencies of inconclusive entries are doubtful fits and often do not repeat.
On the % scale 0 is the no-effect control and ±100 the full control effect; potency means the concentration at half of the fitted maximal effect.

The molecules below were run against DNA polymerase beta (Homo sapiens) (UniProt P06746) (assay: qHTS Assay for Inhibitors of DNA Polymerase Beta). Settings: Pol beta primer extension/strand displacement, fluorescence kinetic; activity change, negative = inhibition: at 114 µM (top of the series).
In short: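 Preincubation: enzyme (10 nM) with compound, 15 min, RT. Reaction: substrate added to 50 nM final. Reads: 0 and 10 min. Analysis: normalized, Hill fit.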
`CCOc1ccc(C(=O)Nc2cccc(C(C)=O)c2)cc1[N+](=O)[O-]` was tested, and the Potency was inconclusive: 15.8 µM [inhibitor, partial curve].
For `CN1CCN(S(=O)(=O)c2cccc(C(=O)Nc3ccccc3N3CCOCC3)c2)CC1`, the Potency was inconclusive: 89.1 µM [inhibitor, single point].
In the case of `Cn1cnc(S(=O)(=O)N2CCCC(C(=O)NCc3ccc(F)cc3)C2)c1` (stereo not drawn), the Potency is reported as inconclusive: 89.1 µM [inhibitor, single point].
With `Cc1sc2nc(CN3CCCC3)nc(Cl)c2c1C` the “activity change, negative = inhibition” value was inactive: 2.8%.
With `Cc1cc(C2(O)C(=O)Nc3ccccc32)ccc1F` (stereo not drawn) the Potency was inconclusive: 79.4 µM [inhibitor, single point].
For `Cc1ccc(C(=O)N/N=C\c2cc3c(cc2Br)OCO3)s1`, the Potency was inconclusive: 89.1 µM [inhibitor, single point].
`CCCCNc1nc2c(S(=O)(=O)c3ccccc3)nnn2c2ccccc12` was tested, and the Potency was inconclusive: 79.4 µM [inhibitor, partial curve, poor fit].
For `CCCN1CCC(=O)N(CCN=[N+]=[N-])CC1`, the Potency was active: 31.6 µM.
In the case of `O=C(Nc1ccc2nc(-c3ccco3)[nH]c2c1)c1ccco1`, the Potency is reported as inconclusive: 25.1 µM [inhibitor, single point].
For `CCCN1C(=O)C(O)(CC(=O)c2ccc(C(C)C)cc2)c2ccccc21` (stereo not drawn), the Potency was inconclusive: 0.1 µM [inhibitor, full curve, poor fit].
In the case of `Cc1ccc2nc(-c3ccc(F)cc3)c(NC(C)(C)CC(C)(C)C)n2c1`, the Potency is reported as inconclusive: 25.1 µM [inhibitor, single point].
In the case of `COC(=O)C1=C(C)NC(=O)/C1=C/c1ccc(CNS(=O)(=O)c2ccc(C)cc2)o1`, the Potency is reported as inconclusive: 4.47 µM [inhibitor, single point].
For `Cc1c(NS(=O)(=O)c2cccc(C(=O)NCc3ccc(Cl)cc3)c2)c(=O)n(-c2ccccc2)n1C`, the Potency was inconclusive: 89.1 µM [inhibitor, single point].
`CCOC(=O)C1=C(O)C(=O)NC(c2ccccc2)=C(OC2CCCCC2)C1` was tested, and the Potency was inconclusive: 5.01 µM [inhibitor, single point].
For `Cc1nc([N+](=O)[O-])cn1Cc1cccc2ccccc12`, the Potency was inconclusive: 14.1 µM [inhibitor, partial curve].
For `Cc1ccnc(NS(=O)(=O)c2ccc(NC(=O)C3CCCCC3)cc2)n1`, the “activity change, negative = inhibition” value was inactive: 6.73%.
For `COc1ccc(NC(=O)C2CCCN(S(=O)(=O)c3ccc4[nH]c(=O)ccc4c3)C2)cc1` (stereo not drawn), the Potency was inconclusive: 89.1 µM [inhibitor, single point].
With `Cc1ccc(C(=O)N/C(=C\c2ccc(C)o2)C(=O)O)cc1` the Potency was inconclusive: 14.1 µM [inhibitor, full curve].
